Source: PMC12011128
No constants are given. Whether binding was seen depends on the method and setting. Binding seen in cells or lysates may run through a third protein. Some binding calls cover weakened binding; strength is not graded here. Tags and fused reporters may be left off the sequences shown.

Chains of the proteins cited; added tags and fusions are not shown. Lines headed by an entry give the natural chain unless they say otherwise; changes in a name come on top.
UniProt Q14457: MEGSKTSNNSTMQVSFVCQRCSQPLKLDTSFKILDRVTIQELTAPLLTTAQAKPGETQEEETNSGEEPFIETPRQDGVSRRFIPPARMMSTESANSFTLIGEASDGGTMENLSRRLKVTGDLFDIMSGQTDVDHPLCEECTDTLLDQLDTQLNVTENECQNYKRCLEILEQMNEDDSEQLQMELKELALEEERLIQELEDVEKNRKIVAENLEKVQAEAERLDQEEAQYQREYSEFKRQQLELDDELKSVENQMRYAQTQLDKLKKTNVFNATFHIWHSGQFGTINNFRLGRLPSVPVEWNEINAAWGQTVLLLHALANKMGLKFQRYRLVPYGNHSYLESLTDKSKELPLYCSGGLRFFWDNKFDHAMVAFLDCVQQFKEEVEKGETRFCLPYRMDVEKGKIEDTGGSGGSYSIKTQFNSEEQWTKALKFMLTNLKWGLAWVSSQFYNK

T1: Flag-tagged MCPIP1 wild type (full-length Flag-MCPIP1) (UniProt Q5D1E8)
T1 sequence: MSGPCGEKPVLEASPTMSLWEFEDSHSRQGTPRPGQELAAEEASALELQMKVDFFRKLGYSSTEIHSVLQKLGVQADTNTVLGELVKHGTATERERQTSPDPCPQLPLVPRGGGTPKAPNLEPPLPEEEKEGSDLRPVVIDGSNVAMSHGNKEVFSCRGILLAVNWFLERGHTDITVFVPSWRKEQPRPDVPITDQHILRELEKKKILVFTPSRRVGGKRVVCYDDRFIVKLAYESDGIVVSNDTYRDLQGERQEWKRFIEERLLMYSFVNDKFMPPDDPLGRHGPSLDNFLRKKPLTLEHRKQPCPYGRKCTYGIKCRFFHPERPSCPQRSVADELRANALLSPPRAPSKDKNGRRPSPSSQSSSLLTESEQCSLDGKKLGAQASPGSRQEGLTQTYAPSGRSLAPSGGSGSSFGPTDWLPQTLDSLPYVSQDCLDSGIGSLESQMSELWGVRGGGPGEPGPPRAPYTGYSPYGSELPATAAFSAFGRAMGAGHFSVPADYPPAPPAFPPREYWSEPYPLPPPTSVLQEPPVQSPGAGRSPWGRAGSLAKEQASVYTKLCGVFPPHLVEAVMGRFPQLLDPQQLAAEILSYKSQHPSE

T2: Myc-tagged MCPIP1 (UniProt Q5D1E8)
T2 sequence: T1 sequence

B1: Flag-TRAF6 260–522 (domain or fragment, UniProt Q9Y4K3 260-522)
chain: RHLQENTQSHMRMLAQAVHSLSVIPDSGYISEVRNFQETIHQLEGRLVRQDHQIRELTAKMETQSMYVSELKRTIRTLEDKVAEIEAQQCNGIYIWKIGNFGMHLKCQEEEKPVVIHSPGFYTGKPGYKLCMRLHLQLPTAQRCANYISLFVHTMQGEYDSHLPWPFQGTIRLTILDQSEAPVRQNHEEIMDAKPELLAFQRPTIPRNPKGFGYVTFMHLEALRQRTFIKDDTLLVRCEVSTRFDMGSLRREGFQPRSTDAGV
B2: Flag-TRAF6 110–522 (domain or fragment, UniProt Q9Y4K3 110-522)
chain: EILLENQLFPDNFAKREILSLMVKCPNEGCLHKMELRHLEDHQAHCEFALMDCPQCQRPFQKFHINIHILKDCPRRQVSCDNCAASMAFEDKEIHDQNCPLANVICEYCNTILIREQMPNHYDLDCPTAPIPCTFSTFGCHEKMQRNHLARHLQENTQSHMRMLAQAVHSLSVIPDSGYISEVRNFQETIHQLEGRLVRQDHQIRELTAKMETQSMYVSELKRTIRTLEDKVAEIEAQQCNGIYIWKIGNFGMHLKCQEEEKPVVIHSPGFYTGKPGYKLCMRLHLQLPTAQRCANYISLFVHTMQGEYDSHLPWPFQGTIRLTILDQSEAPVRQNHEEIMDAKPELLAFQRPTIPRNPKGFGYVTFMHLEALRQRTFIKDDTLLVRCEVSTRFDMGSLRREGFQPRSTDAGV
B3: Flag-TRAF6 349–522 (domain or fragment, UniProt Q9Y4K3 349-522)
chain: CNGIYIWKIGNFGMHLKCQEEEKPVVIHSPGFYTGKPGYKLCMRLHLQLPTAQRCANYISLFVHTMQGEYDSHLPWPFQGTIRLTILDQSEAPVRQNHEEIMDAKPELLAFQRPTIPRNPKGFGYVTFMHLEALRQRTFIKDDTLLVRCEVSTRFDMGSLRREGFQPRSTDAGV
B4: Flag-MCPIP1 1–453 (domain or fragment, UniProt Q5D1E8 1-453)
chain: MSGPCGEKPVLEASPTMSLWEFEDSHSRQGTPRPGQELAAEEASALELQMKVDFFRKLGYSSTEIHSVLQKLGVQADTNTVLGELVKHGTATERERQTSPDPCPQLPLVPRGGGTPKAPNLEPPLPEEEKEGSDLRPVVIDGSNVAMSHGNKEVFSCRGILLAVNWFLERGHTDITVFVPSWRKEQPRPDVPITDQHILRELEKKKILVFTPSRRVGGKRVVCYDDRFIVKLAYESDGIVVSNDTYRDLQGERQEWKRFIEERLLMYSFVNDKFMPPDDPLGRHGPSLDNFLRKKPLTLEHRKQPCPYGRKCTYGIKCRFFHPERPSCPQRSVADELRANALLSPPRAPSKDKNGRRPSPSSQSSSLLTESEQCSLDGKKLGAQASPGSRQEGLTQTYAPSGRSLAPSGGSGSSFGPTDWLPQTLDSLPYVSQDCLDSGIGSLESQMSELWGV
B5: Flag-MCPIP1 1–555 (domain or fragment, UniProt Q5D1E8 1-555)
chain: MSGPCGEKPVLEASPTMSLWEFEDSHSRQGTPRPGQELAAEEASALELQMKVDFFRKLGYSSTEIHSVLQKLGVQADTNTVLGELVKHGTATERERQTSPDPCPQLPLVPRGGGTPKAPNLEPPLPEEEKEGSDLRPVVIDGSNVAMSHGNKEVFSCRGILLAVNWFLERGHTDITVFVPSWRKEQPRPDVPITDQHILRELEKKKILVFTPSRRVGGKRVVCYDDRFIVKLAYESDGIVVSNDTYRDLQGERQEWKRFIEERLLMYSFVNDKFMPPDDPLGRHGPSLDNFLRKKPLTLEHRKQPCPYGRKCTYGIKCRFFHPERPSCPQRSVADELRANALLSPPRAPSKDKNGRRPSPSSQSSSLLTESEQCSLDGKKLGAQASPGSRQEGLTQTYAPSGRSLAPSGGSGSSFGPTDWLPQTLDSLPYVSQDCLDSGIGSLESQMSELWGVRGGGPGEPGPPRAPYTGYSPYGSELPATAAFSAFGRAMGAGHFSVPADYPPAPPAFPPREYWSEPYPLPPPTSVLQEPPVQSPGAGRSPWGRAGSLAKEQAS
B6: Flag-tagged MCPIP1 wild type (full-length Flag-MCPIP1) (protein, UniProt Q5D1E8 1-599)
chain: T1 sequence
B7: Flag-MCPIP1 150–453 (domain or fragment, UniProt Q5D1E8 150-453)
chain: GNKEVFSCRGILLAVNWFLERGHTDITVFVPSWRKEQPRPDVPITDQHILRELEKKKILVFTPSRRVGGKRVVCYDDRFIVKLAYESDGIVVSNDTYRDLQGERQEWKRFIEERLLMYSFVNDKFMPPDDPLGRHGPSLDNFLRKKPLTLEHRKQPCPYGRKCTYGIKCRFFHPERPSCPQRSVADELRANALLSPPRAPSKDKNGRRPSPSSQSSSLLTESEQCSLDGKKLGAQASPGSRQEGLTQTYAPSGRSLAPSGGSGSSFGPTDWLPQTLDSLPYVSQDCLDSGIGSLESQMSELWGV
B8: Flag-MCPIP1 81–599 (domain or fragment, UniProt Q5D1E8 81-599)
chain: VLGELVKHGTATERERQTSPDPCPQLPLVPRGGGTPKAPNLEPPLPEEEKEGSDLRPVVIDGSNVAMSHGNKEVFSCRGILLAVNWFLERGHTDITVFVPSWRKEQPRPDVPITDQHILRELEKKKILVFTPSRRVGGKRVVCYDDRFIVKLAYESDGIVVSNDTYRDLQGERQEWKRFIEERLLMYSFVNDKFMPPDDPLGRHGPSLDNFLRKKPLTLEHRKQPCPYGRKCTYGIKCRFFHPERPSCPQRSVADELRANALLSPPRAPSKDKNGRRPSPSSQSSSLLTESEQCSLDGKKLGAQASPGSRQEGLTQTYAPSGRSLAPSGGSGSSFGPTDWLPQTLDSLPYVSQDCLDSGIGSLESQMSELWGVRGGGPGEPGPPRAPYTGYSPYGSELPATAAFSAFGRAMGAGHFSVPADYPPAPPAFPPREYWSEPYPLPPPTSVLQEPPVQSPGAGRSPWGRAGSLAKEQASVYTKLCGVFPPHLVEAVMGRFPQLLDPQQLAAEILSYKSQHPSE
B9: Flag-MCPIP1 150–599 (domain or fragment, UniProt Q5D1E8 150-599)
chain: GNKEVFSCRGILLAVNWFLERGHTDITVFVPSWRKEQPRPDVPITDQHILRELEKKKILVFTPSRRVGGKRVVCYDDRFIVKLAYESDGIVVSNDTYRDLQGERQEWKRFIEERLLMYSFVNDKFMPPDDPLGRHGPSLDNFLRKKPLTLEHRKQPCPYGRKCTYGIKCRFFHPERPSCPQRSVADELRANALLSPPRAPSKDKNGRRPSPSSQSSSLLTESEQCSLDGKKLGAQASPGSRQEGLTQTYAPSGRSLAPSGGSGSSFGPTDWLPQTLDSLPYVSQDCLDSGIGSLESQMSELWGVRGGGPGEPGPPRAPYTGYSPYGSELPATAAFSAFGRAMGAGHFSVPADYPPAPPAFPPREYWSEPYPLPPPTSVLQEPPVQSPGAGRSPWGRAGSLAKEQASVYTKLCGVFPPHLVEAVMGRFPQLLDPQQLAAEILSYKSQHPSE

target: T1, Flag-tagged MCPIP1 wild type (full-length Flag-MCPIP1); assay: co-IP; semi-endogenous IP: HPF cells transiently transfected with Flag-MCPIP1, with or without 15 µg/mL LPS for 3 hours; IP with anti-IgG or anti-Flag, immunoblot with anti-Flag, anti-TRAF6 and anti-BECN1

binding, binds:
BECN1 (endogenous, HPF cells) (from UniProt Q14457 1-450)

target: T2, Myc-tagged MCPIP1; assay: co-IP; HPF cells co-transfected with a Myc-tagged and a Flag-tagged protein (Lipofectamine 2000), collected after 38 hours; lysates immunoprecipitated with anti-Myc antibody, SDS-PAGE, immunoblot with anti-Myc and anti-Flag; for TRAF6 with BECN1 also with different concentrations of Flag-MCPIP1 co-expressed

binding, binds:
Flag-tagged BECN1 (full-length BECN1) (from UniProt Q14457 1-450)
Flag-BECN1 1–269 (from UniProt Q14457 1-269) (domain or fragment)
B1
B2
B3

target: Myc-tagged BECN1 (UniProt Q14457); assay: as above

binding, binds:
B4
B5
B6
B7
B8
B9
